No constants are given. Whether binding was seen depends on the method and setting.
Target: Bovine serum albumin (bovine) (UniProt P02769)
Assay: ELISA; phage ELISA: VLPs, P-domain, S-domain (CT303) or BSA coated directly on the plate (VLPs 5 ug/mL in PBS); 5 × 10^10 cfu phage per well in 1% MPBS, 2 h RT; detected with anti-M13 HRP; signal as ratio to M13KE phage; both purified

Amino acid sequences for entries named in this document (tags omitted). Residues count along the entry.
UniProt P02769, residues 25-607: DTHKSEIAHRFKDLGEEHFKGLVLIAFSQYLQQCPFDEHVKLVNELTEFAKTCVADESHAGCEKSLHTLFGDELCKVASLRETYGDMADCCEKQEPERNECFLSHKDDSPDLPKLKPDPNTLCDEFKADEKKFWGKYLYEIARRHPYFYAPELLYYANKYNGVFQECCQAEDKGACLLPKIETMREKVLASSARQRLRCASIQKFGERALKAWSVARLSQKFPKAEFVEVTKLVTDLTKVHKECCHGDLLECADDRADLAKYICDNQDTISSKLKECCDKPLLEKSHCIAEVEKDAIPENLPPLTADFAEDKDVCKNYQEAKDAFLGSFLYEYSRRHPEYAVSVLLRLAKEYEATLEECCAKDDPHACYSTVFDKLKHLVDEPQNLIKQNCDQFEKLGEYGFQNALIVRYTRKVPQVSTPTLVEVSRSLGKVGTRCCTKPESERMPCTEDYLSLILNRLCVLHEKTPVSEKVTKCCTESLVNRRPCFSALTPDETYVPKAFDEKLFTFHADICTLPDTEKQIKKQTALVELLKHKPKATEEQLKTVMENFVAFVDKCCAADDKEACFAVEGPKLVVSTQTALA

In the case of LPSWYLAYQKII [NV-N-R5-1 phage-displayed 12-mer peptide], the binding is reported as “no binding (tested: 5 × 10^10 cfu of phage per well)”.

— paper PMC5240998
